Assay results reported in PubChem BioAssay AID504810 (National Center for Advancing Translational Sciences (NCATS), 2011).
The whole screen tested about 330,000 compounds, of which about 670 (0.2%) were called active. Inconclusive results, whose numbers are uncertain, are shown with a selection of clear calls.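 The calls were made as follows: active = activity change below a set negative limit, meaning inhibition stronger than a set level (cut at about -70% in these data); inconclusive = activity change between two set negative limits; inactive = the rest.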

The chains behind the UniProt entries cited, without tags or fusion partners.
UniProt P16473, whole entry, looked up: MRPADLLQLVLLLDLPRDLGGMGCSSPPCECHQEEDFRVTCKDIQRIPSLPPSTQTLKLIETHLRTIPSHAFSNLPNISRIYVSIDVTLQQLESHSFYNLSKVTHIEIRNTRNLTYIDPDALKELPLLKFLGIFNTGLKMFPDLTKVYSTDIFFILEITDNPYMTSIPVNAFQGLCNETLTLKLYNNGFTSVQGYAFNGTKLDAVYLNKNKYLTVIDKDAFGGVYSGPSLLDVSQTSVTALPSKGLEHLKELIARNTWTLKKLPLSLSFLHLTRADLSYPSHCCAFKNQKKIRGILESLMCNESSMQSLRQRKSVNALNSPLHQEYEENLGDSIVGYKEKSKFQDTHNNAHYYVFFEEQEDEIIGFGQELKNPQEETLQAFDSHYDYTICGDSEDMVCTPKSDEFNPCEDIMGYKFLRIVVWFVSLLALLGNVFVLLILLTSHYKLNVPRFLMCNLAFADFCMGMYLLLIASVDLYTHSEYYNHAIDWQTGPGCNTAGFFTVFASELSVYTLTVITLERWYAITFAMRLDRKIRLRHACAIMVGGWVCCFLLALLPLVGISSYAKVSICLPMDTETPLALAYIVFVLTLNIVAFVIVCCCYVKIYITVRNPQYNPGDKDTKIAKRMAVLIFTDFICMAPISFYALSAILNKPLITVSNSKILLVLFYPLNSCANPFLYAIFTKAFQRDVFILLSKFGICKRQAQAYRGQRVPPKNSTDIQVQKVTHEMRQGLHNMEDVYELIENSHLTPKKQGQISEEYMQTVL

Target: Thyrotropin receptor (Homo sapiens) (UniProt P16473)
Assay: Antagonists of the Thyroid Stimulating Hormone Receptor: HTS campaign
Conditions: TSHR-expressing cells, TSH-stimulated cAMP HTRF, 2 h; at 11.5 µM; stronger effect = lower value
Method in brief: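 Cell-based HTRF cAMP assay; TSHR cells + compound, TSH EC80 (4nM final), 2 h, 37 deg C. Lysis with anti-cAMP cryptate and cAMP-d2, 30 min RT, read 665/620 nm.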
% is scaled to controls: 0 for no effect and ±100 for the full control effect.

SMILES | activity change, negative = inhibition
O=[N+]([O-])c1ccc(O)c(/C=N/n2cnc3ccccc32)c1 | inconclusive: -52.8%
CC1=CC(=O)C(C(C)C)=C/C1=N/OS(=O)(=O)c1ccccc1 | active: -97.6%
Cc1ccc(NC(=O)CSc2ncnc3ccccc23)cc1S(=O)(=O)N1CCCCC1 | inconclusive: -55.6%
COc1ccc(O)c(/C=N/NC(=S)NCCc2ccccc2)c1 | inconclusive: -51.9%
Cc1c(C(=O)Nc2ccc3c(c2)OCCO3)sc2nc(-c3ccccc3)cn12 | inconclusive: -55%
Cc1ccc(-n2c(-c3ccc(Br)cc3)c[n+]3c2CCc2ccc4cccnc4c2-3)cc1 | inconclusive: -62.3%
CCCN1C(=O)c2ccc(C(=O)Nc3cc(C)ccc3O)cc2C1=O | inconclusive: -50.3%
CC(C)(C)c1csc(NC(=O)c2ccccc2O)n1 | inconclusive: -58.3%
CN(CCC#N)C(=O)CC1(Cc2ccccc2)CCOC(C)(C)C1 (configuration not stated) | inactive: -3.8%
CCn1c(CSc2nc(C)cc(C)n2)nnc1SCC(=O)Nc1nc(-c2ccccc2)cs1 | inactive: 3.57%
O=C(Nc1ccncc1)c1ccc(Cl)c(S(=O)(=O)N2CCc3ccccc32)c1 | inconclusive: -54.2%
CCOC(=O)c1c(NC(=O)c2ccc(C)cc2)sc2c1CC(C)(C)OC2 | inactive: -10.3%
COc1ccc(NC(=O)CCC2CCCCC2)cc1S(=O)(=O)N1CCCCC1 | inconclusive: -57.6%
Cc1ccc(CS(=O)(=O)c2ccc(C(=O)N3CCN(c4ccccn4)CC3)cc2[N+](=O)[O-])cc1 | inactive: -14.8%
NC(=O)C1CCN(CCC(=O)Nc2ccc(Br)cc2)CC1 | inconclusive: -54%
COc1ccc(N2C(=O)NC(NS(=O)(=O)c3ccc(Cl)cc3)(C(F)(F)F)C2=O)cc1 (configuration not stated) | active: -105%
O=C(NC(=S)Nc1ccc(CN2CCOCC2)cc1)c1ccc([N+](=O)[O-])cc1 | inactive: 6.79%
CCc1noc(C)c1C(=O)Oc1ccc(N(C)S(=O)(=O)c2ccc(C)cc2)cc1 | inconclusive: -64.1%
C[C@@H]1C[C@H](Nc2ccccc2)c2ccccc2N1C(=O)c1cccnc1 | inconclusive: -54.4%
Cc1ccc(NC(=O)C2SC(=Nc3ccccc3)C(C(=O)Nc3ccc(Cl)cc3)=C2N)cc1 (configuration not stated) | inactive: -13%
CS(=O)(=O)N1CCc2cc(-c3csc(NC(=O)Cc4cccs4)n3)ccc21 | inconclusive: -60.8%

SMILES | activity change, negative = inhibition
COc1ccccc1NC(=O)c1cc2cc(Br)ccc2cc1O | inconclusive: -52.5%
Cc1cc(NC(=O)CC(C)C)c(=O)n(Cc2c(F)cccc2Cl)c1 | inactive: 3.48%
Cc1ccc(-n2cc(CN3CCNC(=O)CC3)c(-c3cccc(C)c3)n2)cc1 | inactive: 9.53%
CSCCCNC(=O)c1ccc(OC2CCN(C(=O)c3cccnc3)CC2)cc1 | inconclusive: -63.5%
CCc1ccc(NC(=S)NC(=O)c2c(-c3ccccc3Cl)noc2C)cc1 | inconclusive: -60.1%
O=C(NCCCSc1ccccc1)c1cc(Cl)ccc1O | inconclusive: -50.9%
CCCC(=O)N(C1CC(C)C(C#N)(C#N)C1(C#N)C#N)N(C)C (configuration not stated) | inconclusive: -65.4%
O=C(CSCCO)Nc1ccc(C23CC4CC(CC(C4)C2)C3)cc1 | inactive: -10.2%
CN1c2ccccc2C(C)(C)C12C=Nc1c(ccc3ccccc13)O2 (configuration not stated) | inactive: -3.99%
COc1ccc(F)cc1CN1CCN(C(=O)CCC(=O)Nc2nnc(CC(C)C)s2)CC1 | inconclusive: -59.3%
CCOc1cc(N2CCOCC2)c(OCC)cc1NC(=O)c1cc(S(=O)(=O)N2CCOCC2)ccc1C | active: -82.4%
COc1ccc(C)cc1N(C)C(=O)Cc1c(C(=O)O)n(C)c2ccccc12 | inconclusive: -51.6%
O=C(NC(=S)Nc1c(Cl)ccc2nsnc12)c1ccccc1F | inconclusive: -63.4%
Cc1ccc(C(=O)NC2CC3CCCC(C2)N3Cc2ccccc2)cc1 (configuration not stated) | inactive: -36.1%
Cc1cccc(C)c1OCCCn1ccnc1 | active: -130%
O=C(Nc1nc(-c2nc3ccccc3s2)cs1)c1ccc(S(=O)(=O)N2CCOCC2)cc1 | inconclusive: -64.3%
NC(=O)c1cc(S(=O)(=O)NCc2ccc(F)cc2)cs1 | active: -132%
CCN(CC)c1ccc(NC(=O)C2CC3CCC2C3)cc1 (configuration not stated) | inconclusive: -50.2%
CNC(=O)c1cc(Oc2ccc(NC(=O)Nc3ccc(Cl)c(C(F)(F)F)c3)cc2)ccn1 | inconclusive: -59.2%
Cn1c2c(c(=O)n(C)c1=O)C(C(F)(F)F)(C(F)(F)F)N=C(c1ccc(Cl)cc1)N2 | inconclusive: -63.5%
O=C(Nc1nc(-c2ccccc2)cs1)c1ccccc1NS(=O)(=O)c1ccc(F)cc1 | active: -85.1%

An excerpt of these results, with tabs:
SMILES	activity change, negative = inhibition
O=C(CSCCO)Nc1ccc(C23CC4CC(CC(C4)C2)C3)cc1	inactive: -10.2%
O=C(NC(=S)Nc1c(Cl)ccc2nsnc12)c1ccccc1F	inconclusive: -63.4%
Cc1ccc(C(=O)NC2CC3CCCC(C2)N3Cc2ccccc2)cc1 (configuration not stated)	inactive: -36.1%
Cn1c2c(c(=O)n(C)c1=O)C(C(F)(F)F)(C(F)(F)F)N=C(c1ccc(Cl)cc1)N2	inconclusive: -63.5%
